PubChem BioAssay AID1259405 | NCATS | 2018

- Screen: 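Silenced genes that increase secreted GFP made by CHO cells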 (primary screen)
- Cell system: Chinese hamster CHO-K1 ovary cells with stable secreted eGFP expression
- Knock-down reagent: single siRNA against mouse genes, 0.8 pmol siRNA per well (2 µl of 400 nM stock)
- Time to read-out: 3 days
- Measurement: 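Percent of the per-plate non-targeting control median for intracellular GFP per well by laser scanning cytometry and for cell viability by ATP luminescence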
- Direction: GFP, % of control: higher = more GFP per well, higher productivity; viability (ATP), % of control: higher = more viable cells (more ATP)
- Active means: 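a knock-down is called active if GFP reaches 120% or more of non-targeting control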
This is an unselected part of about 50,000 deposited reagents. Of all reagents, about 4,000 (8%) are marked active. 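Mouse siRNA library applied to hamster cells; one well for each siRNA.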 Reagents against one gene are numbered here.

Gene,reagent,"GFP, % of control","viability (ATP), % of control",Outcome
Fjx1 (GeneID 14221),1,60.3,83.2,inactive
Fjx1 (GeneID 14221),2,50.2,89.6,inactive
Fjx1 (GeneID 14221),3,92.3,75.6,inactive
E4f1 (GeneID 13560),1,65.1,83,inactive
E4f1 (GeneID 13560),2,91.1,76.3,inactive
Tnpo1 (GeneID 238799),1,45.2,52.5,inactive
Tnpo1 (GeneID 238799),2,85.7,108,inactive
Tnpo1 (GeneID 238799),3,65.9,60.4,inactive
Adgrg2 (GeneID 237175),1,116,63.4,inactive
Adgrg2 (GeneID 237175),2,94.1,82.5,inactive
Adgrg2 (GeneID 237175),3,99.1,74.7,inactive
Hecw1 (GeneID 94253),1,57.3,67.4,inactive
Hecw1 (GeneID 94253),2,51.8,59.2,inactive
Hecw1 (GeneID 94253),3,115,152,inactive
Rmp24 (GeneID 68046),1,39.4,60.3,inactive
Rmp24 (GeneID 68046),2,73.9,103,inactive
Rmp24 (GeneID 68046),3,78.9,97.1,inactive
Tssk2 (GeneID 22115),1,88,71.2,inactive
Slc4a2 (GeneID 20535),1,73.8,72.9,inactive
Slc4a2 (GeneID 20535),2,65.3,84.2,inactive
Slc4a2 (GeneID 20535),3,43.6,54.1,inactive
Vav3 (GeneID 57257),1,132,129,active
Vav3 (GeneID 57257),2,51,51.9,inactive
Vav3 (GeneID 57257),3,85.4,76.7,inactive
Magea9-ps (GeneID 195772),1,94.5,81.3,inactive
Magea9-ps (GeneID 195772),2,75.7,84.4,inactive
Magea9-ps (GeneID 195772),3,75.1,46.4,inactive
Mblac1 (GeneID 330216),1,59.9,55.6,inactive
Mblac1 (GeneID 330216),2,76.7,75.1,inactive
Mblac1 (GeneID 330216),3,91.9,108,inactive
Gcc1 (GeneID 74375),1,57.7,85.2,inactive
Gcc1 (GeneID 74375),2,69.4,87.3,inactive
Gcc1 (GeneID 74375),3,76.6,47.1,inactive
Myh4 (GeneID 17884),1,67.3,98.2,inactive
Myh4 (GeneID 17884),2,87.9,105,inactive

6 successive reagents already listed, quoted:
Gene,reagent,"GFP, % of control","viability (ATP), % of control",Outcome
Adgrg2 (GeneID 237175),1,116,63.4,inactive
Adgrg2 (GeneID 237175),2,94.1,82.5,inactive
Adgrg2 (GeneID 237175),3,99.1,74.7,inactive
Hecw1 (GeneID 94253),1,57.3,67.4,inactive
Hecw1 (GeneID 94253),2,51.8,59.2,inactive
Hecw1 (GeneID 94253),3,115,152,inactive
